Assay results from patent US20180193413A1 (UNIVERSITY OF BRITISH COLUMBIA, published 2018).
Results are given in words; binding and its absence hold for the method and conditions named. Binding can be weak; no strength is given.

B1: SEQ ID NO 17 (protein)
chain: EAEAYVEFDYKDDDDKGHHHHHHGGSDSEVNQEAKPEVKPEVKPETHINLKVSDGSSEIFFKIKKTTPLRRLMEAFAKRQGKEMDSLTFLYDGIEIQADQTPEDLDMEDNDIIEAHREQIGGESGNSCYIYHGVSGICKASCAEDEKAMAGMGVCEGHLCCYKTPW

Key:
mammalian alpha-amylase [1] = test: alpha-amylase inhibition assay of truncated peptides
mammalian alpha-amylase [2] = test: alpha-amylase inhibition assay of uncleaved fusion peptides

Binder	binding (mammalian alpha-amylase [1])	binding (mammalian alpha-amylase [2])
YIYHGVSGI (N-terminal acetyl (Ac), C-terminal amide (NH2))	binds	–
CYIYHGVSGIC (N-terminal acetyl (Ac), C-terminal amide (NH2))	binds	–
B1	–	binds
